Reference: US20030211979A1 (Boehringer Ingelheim Pharma GmbH & Co. KG, priority 2002, published 2003)

Experiment: general procedure: hybrid (solid and solution phase) peptide synthesis; H-Gly-2-chlorotrityl-resin; TBTU/HOBt/diisopropylethylamine; HATU/diisopropylethylamine

| Substance | step yield (late stage modification step) | final HPLC purity (late stage modification step) | conjugation yield (conjugation step) | final HPLC purity (conjugation step) | final HPLC purity (coupling step) |
| --- | --- | --- | --- | --- | --- |
| 4-Carboxymethylphenylacetyl-Pro-Ala-Gly-Pro-MNA | 48% | HPLC>95% | – | – | – |
| Aloc-Pro-Ala-Gly-Pro-Dox | – | – | 81% | HPLC>95% | – |
| H-Pro-Ala-Gly-Pro-Dox | 95% | HPLC>95% | – | – | – |
| H-Pro-Ala-Gly-Pro-MNA | – | – | – | – | HPLC>95% |
| [2-(4-Carboxymethyl-phenyl)-acetyl]-Pro-Ala-Gly-Pro-Dox | 64% | HPLC>95% | – | – | – |

One purity is given for all peptides; the source may state it once.
